Test results: PubChem BioAssay AID376 (PDSP, 2006)
What follows is the remainder of the data, with few or none of the hits. The source made the active and inactive calls. No stated cut-off is given here; in the data, active means hERG blockade below about -20% or above about 20%; inactive means in between.

The chains behind the UniProt entries cited, without tags or fusion partners. Where a name states a change or a piece, a line headed by the entry shows the natural chain unless it says otherwise.
UniProt Q12809: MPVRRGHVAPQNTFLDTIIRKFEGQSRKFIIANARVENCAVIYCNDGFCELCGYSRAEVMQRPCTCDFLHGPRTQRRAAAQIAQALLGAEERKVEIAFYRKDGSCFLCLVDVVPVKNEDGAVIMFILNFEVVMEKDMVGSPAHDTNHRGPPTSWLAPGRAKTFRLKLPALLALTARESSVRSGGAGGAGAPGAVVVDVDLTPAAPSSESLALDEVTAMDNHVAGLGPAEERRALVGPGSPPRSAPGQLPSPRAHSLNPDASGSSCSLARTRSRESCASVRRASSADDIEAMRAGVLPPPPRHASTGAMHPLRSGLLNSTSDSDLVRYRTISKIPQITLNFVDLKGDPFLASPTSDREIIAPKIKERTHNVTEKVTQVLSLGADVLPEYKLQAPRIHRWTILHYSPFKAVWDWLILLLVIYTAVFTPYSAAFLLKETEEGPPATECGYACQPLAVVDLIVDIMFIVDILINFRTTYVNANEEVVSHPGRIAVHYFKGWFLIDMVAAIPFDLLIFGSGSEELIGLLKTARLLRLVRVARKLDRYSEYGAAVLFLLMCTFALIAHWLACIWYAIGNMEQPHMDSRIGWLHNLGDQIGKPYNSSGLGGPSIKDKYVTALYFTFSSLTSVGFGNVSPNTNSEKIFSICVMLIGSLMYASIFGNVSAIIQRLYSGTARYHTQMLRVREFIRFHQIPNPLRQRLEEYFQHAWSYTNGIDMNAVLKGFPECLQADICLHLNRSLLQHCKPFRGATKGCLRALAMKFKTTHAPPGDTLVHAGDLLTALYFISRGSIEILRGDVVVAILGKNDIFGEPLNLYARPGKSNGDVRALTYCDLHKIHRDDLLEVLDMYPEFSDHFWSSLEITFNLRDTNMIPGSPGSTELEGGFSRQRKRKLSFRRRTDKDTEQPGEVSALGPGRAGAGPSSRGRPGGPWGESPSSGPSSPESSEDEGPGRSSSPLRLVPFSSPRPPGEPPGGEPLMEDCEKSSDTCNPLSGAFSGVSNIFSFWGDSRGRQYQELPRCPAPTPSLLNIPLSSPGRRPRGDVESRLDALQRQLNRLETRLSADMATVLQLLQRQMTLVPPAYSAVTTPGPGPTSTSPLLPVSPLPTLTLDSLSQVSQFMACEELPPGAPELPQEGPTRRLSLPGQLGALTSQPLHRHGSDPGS

molecular target: Voltage-gated inwardly rectifying potassium channel KCNH2 (Homo sapiens) (UniProt Q12809); test: modulators of KCNH2 ion channel function, cellular (AID 376); conditions: hERG-expressing cells, channel activity single-concentration screen; concentration not given here;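 further: 0% = buffer alone and 100% = reference blocker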

With NCCCC(N)C(=O)O (stereo not drawn) as the compound, how does the hERG blockade read?
The hERG blockade was inactive: -9.77%.

O=S(=O)(c1ccccc1)N1CCN(S(=O)(=O)c2ccccc2)c2ccccc21 was tested. Which hERG blockade did it give?
The hERG blockade was inactive: 4.5%.

How did the hERG blockade turn out when O=C1c2cccc(O)c2C(=O)c2c(OC3OC(CO)C(O)C(O)C3O)cccc21 (stereo not drawn) was run?
Its hERG blockade is inactive: 11.3%.
